Patent US11209421B2, “Cytidine deaminase expression level in cancer as a new therapeutic target” (CENTRE NATIONAL DE LA RECHERCHE SCIENTIFIQUE, priority 2016, dated 2021)
For at least one compound, name, drawing or mass did not settle the structure.

Key:
MCF-7 xenograft = conditions: MCF-7 xenografts, ovariectomized athymic mice, 7 weeks; dasatinib 15 mg/kg/d p.o., BKM120 30 mg/kg/d p.o., fulvestrant 5 mg/wk s.c.; cited from earlier work
HCC1428 xenograft = conditions: HCC1428 xenografts, nude mice, 50 mg/kg daily oral gavage, versus vehicle; cited from earlier work
MDA-MB-231 cells = experiment: MTT cell viability, MDA-MB-231; format: cell-based, human; conditions: MDA-MB-231 (CDA-proficient), 72 hours treatment
MDA-MB-468 cells = experiment: MTT cell viability, MDA-MB-468; format: cell-based, human; conditions: MDA-MB-468 (CDA-deficient), 72 hours treatment
[1] = tested on: MCF-7 cells transfected with siESR1; experiment: MTT survival of MCF-7 cells transfected with siESR1 and treated with Dasatinib; format: cell-based, human; conditions: MCF-7 siESR1 versus siCtrl; 96 h after transfection, dasatinib 72 h
HeLa control cells = experiment: Images of HeLa control cells 24 h after Dasatinib treatment; format: cell-based, human; conditions: 24 h after 0.5 or 1 μM
MDA-MB-231 xenograft = conditions: MDAMB231 xenografts, nude mice, 50 mg/kg daily oral gavage, versus vehicle; cited from earlier work
MCF-7 cells = experiment: MTT cell viability, MCF-7; format: cell-based, human; conditions: MCF-7 (CDA-deficient), 72 hours treatment
HeLa-Ctrl cells = experiment: MTT cell viability, HeLa control cells (CDA-expressing); format: cell-based, human; conditions: HeLa-Ctrl versus HeLa-shCDA, 72 hours treatment

Cc1nc(Nc2ncc(C(=O)Nc3c(C)cccc3Cl)s2)cc(N2CCN(CCO)CC2)n1 [NSC 759877, Dasatinib]
growth of established tumors compared with vehicle (MCF-7 xenograft): did not inhibit the growth of established tumors
tumor volume (HCC1428 xenograft): but not
sensitivity (cell survival, MTT) (MDA-MB-231 cells): sensitive
sensitivity (cell survival, MTT) (MDA-MB-468 cells): resistant
sensitivity to dasatinib (survival, MTT) [1]: significantly enhanced sensitivity
effect on cell morphology (images) (HeLa control cells): strong effect (round cells, blocked in mitosis)
tumor volume (MDA-MB-231 xenograft): significantly reduced
sensitivity (cell survival, MTT) (MCF-7 cells): resistant
sensitivity (percentage of cells surviving, MTT) (HeLa-Ctrl cells): more sensitive
